Results deposited as PubChem BioAssay AID1053208 (Peter MacCallum Cancer Centre, 2014).
Purpose: 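Find knock-downs that sensitise mouse osteosarcoma cells to doxorubicin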 (primary screen). Cells: mouse osteosarcoma cells, early-passage culture from an engineered mouse model of fibroblastic bone tumour. Reagents: siRNA pool against mouse genes, 40 nM. Duration: about 120 h (48 h before drug, then 72 h with drug). Treatment: doxorubicin 100 nM for 72 h, roughly 30-40% inhibitory dose. Measurement: 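Luminescent ATP signal taken as viability with or without 100 nM doxorubicin for 72 h; mean of two wells set against non-targeting siRNA and turned into robust z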. Reading the numbers: viability z-score with doxorubicin and doxorubicin viability vs non-targeting: higher = more viable cells under doxorubicin; viability z-score without drug: higher = more viable cells with knock-down alone; z-score of drug to no-drug ratio: higher = less drug sensitisation by knock-down. Hit rule: 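a pool counts as active when its viability z-score with doxorubicin is -2 or below and its z-score without drug lies between -2 and 2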.
Shown is one part, drawn at random, of about 17,000 reagents tested. 788 of them (4.7%) were called active. 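Calls rest on z-score classes alone; an extra cut-off of viability at most 70% of control was not applied to them.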 The numbers tell different reagents against one gene apart.

| Target gene | reagent | combined z-score class | viability z-score with doxorubicin | viability z-score without drug | z-score of drug to no-drug ratio | doxorubicin viability vs non-targeting | call |
| --- | --- | --- | --- | --- | --- | --- | --- |
| Dpp4 | 1 | no change with or without drug | -0.67 | -1.85 | 0.79 | 0.88 | inactive |
| Syt17 | 1 | no change with or without drug | 0.9 | -0.17 | 1.24 | 1.02 | inactive |
| Mapk1ip1 | 1 | low cell count with and without drug | -3.15 | -4.89 | 0.22 | 0.66 | inactive |
| H1f4 | 1 | no change with or without drug | 0.34 | 0.34 | 0.22 | 0.97 | inactive |
| Tmem183a | 1 | no change with or without drug | 1.12 | -0.84 | 2.02 | 1.04 | inactive |
| Cplx2 | 1 | no change with or without drug | -0.22 | 1.18 | -0.9 | 0.92 | inactive |
| Gen1 | 1 | no change with or without drug | 1.12 | 1.01 | 0.56 | 1.04 | inactive |
| Tchp | 1 | no change with or without drug | 0.22 | -0.51 | 0.67 | 0.96 | inactive |
| Epb41l3 | 1 | no change with or without drug | -0.22 | -0.51 | 0.22 | 0.92 | inactive |
| Alox8 | 1 | no change with or without drug | 0.56 | 1.52 | -0.34 | 0.99 | inactive |
| Dhx37 | 1 | no change with or without drug | -0.22 | 0.34 | -0.34 | 0.92 | inactive |
| Slc38a11 | 1 | no change with or without drug | 0 | 0 | 0.11 | 0.94 | inactive |
| Leng9 | 1 | no change with or without drug | 1.12 | 0.84 | 0.67 | 1.04 | inactive |
| Hvcn1 | 1 | no change with or without drug | 1.8 | 1.52 | 0.9 | 1.1 | inactive |
| Ebna1bp2 | 1 | low cell count with and without drug | -3.15 | -2.19 | -2.02 | 0.66 | inactive |
| Npnt | 1 | no change with or without drug | -0.9 | -0.51 | -0.56 | 0.86 | inactive |
| Nptx2 | 1 | no change with or without drug | -0.34 | -0.17 | -0.11 | 0.91 | inactive |
| Coa8 | 1 | no change with or without drug | 1.35 | 1.35 | 0.56 | 1.06 | inactive |
| Cyp2a5 | 1 | no change with or without drug | -0.45 | -0.34 | -0.11 | 0.9 | inactive |

Reprinted from the entries so far (2 entries):
| Target gene | reagent | combined z-score class | viability z-score with doxorubicin | viability z-score without drug | z-score of drug to no-drug ratio | doxorubicin viability vs non-targeting | call |
| --- | --- | --- | --- | --- | --- | --- | --- |
| Tchp | 1 | no change with or without drug | 0.22 | -0.51 | 0.67 | 0.96 | inactive |
| Epb41l3 | 1 | no change with or without drug | -0.22 | -0.51 | 0.22 | 0.92 | inactive |

Continued.
| Target gene | reagent | combined z-score class | viability z-score with doxorubicin | viability z-score without drug | z-score of drug to no-drug ratio | doxorubicin viability vs non-targeting | call |
| --- | --- | --- | --- | --- | --- | --- | --- |
| Pramel3c | 1 | no change with or without drug | -1.57 | 1.01 | -2.14 | 0.8 | inactive |
| Vmn2r122 | 1 | high cell count without drug only | 1.12 | 2.53 | -0.34 | 1.04 | inactive |
| Vmn2r122 | 2 | high cell count without drug only | 1.91 | 2.36 | 0.45 | 1.11 | inactive |
| Or14j3 | 1 | no change with or without drug | -1.35 | 1.18 | -2.02 | 0.82 | inactive |
| Icam5 | 1 | no change with or without drug | 0 | -0.17 | 0.22 | 0.94 | inactive |
| Liph | 1 | no change with or without drug | 0.34 | -0.51 | 0.79 | 0.97 | inactive |
| Podn | 1 | low cell count with doxorubicin only | -2.02 | -1.18 | -1.35 | 0.76 | active |
| Angptl2 | 1 | low cell count without drug only | -1.8 | -2.19 | -0.34 | 0.78 | inactive |
| Irs4 | 1 | no change with or without drug | -0.22 | 0.67 | -0.56 | 0.92 | inactive |
| Hypk | 1 | no change with or without drug | 0.9 | 1.18 | 0.22 | 1.02 | inactive |
| Lhx2 | 1 | no change with or without drug | -1.12 | 0.84 | -1.57 | 0.84 | inactive |
| Pi4kb | 1 | no change with or without drug | -1.12 | -1.18 | -0.34 | 0.84 | inactive |
| Opalin | 1 | no change with or without drug | 0.34 | 1.18 | -0.34 | 0.97 | inactive |
| Ndufaf5 | 1 | no change with or without drug | 0.22 | 1.18 | -0.45 | 0.96 | inactive |
| Pcsk9 | 1 | no change with or without drug | -0.22 | 1.18 | -0.9 | 0.92 | inactive |
| Hoxd8 | 1 | no change with or without drug | -0.34 | -1.69 | 1.01 | 0.91 | inactive |
| Srsf11 | 1 | no change with or without drug | -1.91 | -1.01 | -1.24 | 0.77 | inactive |
| Chmp7 | 1 | no change with or without drug | -0.67 | 0.67 | -1.01 | 0.88 | inactive |
| Pcyox1l | 1 | no change with or without drug | -0.56 | 0.51 | -0.79 | 0.89 | inactive |
| Dpf1 | 1 | no change with or without drug | -0.67 | -0.84 | 0 | 0.88 | inactive |
| Klc1 | 1 | no change with or without drug | 0 | -0.84 | 0.67 | 0.94 | inactive |
| Wbp2 | 1 | no change with or without drug | -1.12 | 0.17 | -1.12 | 0.84 | inactive |
| Oscar | 1 | no change with or without drug | -1.8 | -1.52 | -0.79 | 0.78 | inactive |
| Or6c8 | 1 | no change with or without drug | 0.22 | 1.01 | -0.34 | 0.96 | inactive |
| Or6c8 | 2 | high cell count without drug only | 0.67 | 2.53 | -0.79 | 1 | inactive |
| Arid2 | 1 | no change with or without drug | -0.11 | -0.84 | 0.56 | 0.93 | inactive |
| Kctd19 | 1 | no change with or without drug | -0.56 | 0.17 | -0.56 | 0.89 | inactive |
| Lrrc61 | 1 | no change with or without drug | 1.8 | 0.51 | 1.57 | 1.1 | inactive |
| Gps2 | 1 | no change with or without drug | 1.69 | 1.35 | 0.9 | 1.09 | inactive |
| Eif4enif1 | 1 | no change with or without drug | 0.22 | 1.35 | -0.56 | 0.96 | inactive |
| Nenf | 1 | no change with or without drug | -0.67 | 1.35 | -1.46 | 0.88 | inactive |
